Measured values taken from paper PMC6039501.
No constants are given. Whether binding was seen depends on the method and setting. Binding seen in cells or lysates may run through a third protein. Some entries that bind do so weakly or less than the wild type. Sequences can lack the tags named with a protein.

By UniProt entry, the sequences of proteins in these tests, tags left out. Where a name states a change or a piece, a line headed by the entry shows the natural chain unless it says otherwise. Residues count along the entry.
UniProt O15524: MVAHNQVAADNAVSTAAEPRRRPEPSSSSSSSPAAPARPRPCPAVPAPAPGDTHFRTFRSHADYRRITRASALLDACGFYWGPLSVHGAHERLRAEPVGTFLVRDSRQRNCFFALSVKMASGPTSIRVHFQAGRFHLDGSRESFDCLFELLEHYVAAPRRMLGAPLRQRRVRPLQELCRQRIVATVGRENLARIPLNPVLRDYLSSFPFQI
GST-SOCS1 SH2 domain: residues 79-174 of O15524
UniProt Q15369: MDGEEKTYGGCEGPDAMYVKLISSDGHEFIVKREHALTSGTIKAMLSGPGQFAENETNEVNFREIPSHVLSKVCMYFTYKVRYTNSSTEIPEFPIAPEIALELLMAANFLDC

What was measured:
[1] = target: T1, Flag-CUEDC2 (in KG-1 cells) (UniProt Q9H467); assay: co-IP; KG-1 cells transfected with Flag-CUEDC2 and Myc-SOCS1; whole cell lysates immunoprecipitated with anti-Myc or anti-Flag monoclonal antibody, blotted with the other
T1 sequence: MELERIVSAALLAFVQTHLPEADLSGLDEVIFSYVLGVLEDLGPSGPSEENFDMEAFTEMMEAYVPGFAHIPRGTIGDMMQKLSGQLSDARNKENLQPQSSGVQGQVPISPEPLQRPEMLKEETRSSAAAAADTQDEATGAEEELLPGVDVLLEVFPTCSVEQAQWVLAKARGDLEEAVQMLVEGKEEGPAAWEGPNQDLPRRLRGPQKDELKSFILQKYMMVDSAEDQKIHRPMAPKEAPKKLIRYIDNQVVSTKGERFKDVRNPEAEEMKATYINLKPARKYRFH

[2] = target: T2, GST-CUEDC2 (full-length CUEDC2 protein) (UniProt Q9H467); assay: pull-down; GST, GST-CUEDC2 or its truncated fusion proteins bound to GST beads, incubated with lysate of KG-1 cells transfected with Myc-SOCS1; binding buffer with protease inhibitors, 4 °C, 6 h; anti-Myc immunoblot; only the target purified
T2 sequence: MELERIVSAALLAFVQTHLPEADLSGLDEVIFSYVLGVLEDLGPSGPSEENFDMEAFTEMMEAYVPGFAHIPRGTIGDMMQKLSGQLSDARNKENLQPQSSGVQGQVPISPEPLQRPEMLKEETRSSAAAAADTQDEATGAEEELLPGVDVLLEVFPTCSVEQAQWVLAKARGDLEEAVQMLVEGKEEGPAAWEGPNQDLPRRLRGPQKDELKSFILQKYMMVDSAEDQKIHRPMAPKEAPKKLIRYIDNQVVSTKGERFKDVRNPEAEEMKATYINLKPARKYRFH

[3] = target: T3, GST-CUEDC2 CUE domain (UniProt Q9H467); assay: as above
T3 sequence: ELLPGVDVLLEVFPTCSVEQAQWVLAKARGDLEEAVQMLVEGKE

[4] = target: Myc-SOCS1 (suppressor of cytokine signalling-1) (UniProt O15524); assay: co-IP; KG-1 cells transfected with Flag-CUEDC2 and Myc-SOCS1; whole cell lysates immunoprecipitated with anti-Myc or anti-Flag monoclonal antibody, blotted with the other
[5] = target: GST-SOCS1 SH2 domain (UniProt O15524); assay: pull-down; purified GST, GST-SOCS1 or truncated GST-SOCS1 fusion proteins incubated with lysate of KG-1 cells transiently transfected with Flag-CUEDC2; anti-Flag immunoblot; only the target purified
[6] = target: GST-SOCS1 (full-length SOCS1 protein) (UniProt O15524); assay: as above
[7] = target: GST-Elongin C fusion protein (UniProt Q15369); assay: pull-down; purified GST or GST-Elongin C incubated with lysates of HEK293T cells cotransfected with HA-SOCS1, with Flag-CUEDC2 or Flag vector, with or without Myc-CUL2; inputs normalised; anti-Flag, anti-HA and anti-Myc immunoblots; only the target purified

For “Myc-SOCS1 (suppressor of cytokine signalling-1) (from UniProt O15524 1-211)”, which binding [1] is on record?
Its binding is “binds”.

What about the binding [2] of the same molecule?
The binding was “binds”.

And the binding [3]?
Its binding is “binds”.

B1: Flag-CUEDC2 (in KG-1 cells) (protein, UniProt Q9H467 1-287)
chain: MELERIVSAALLAFVQTHLPEADLSGLDEVIFSYVLGVLEDLGPSGPSEENFDMEAFTEMMEAYVPGFAHIPRGTIGDMMQKLSGQLSDARNKENLQPQSSGVQGQVPISPEPLQRPEMLKEETRSSAAAAADTQDEATGAEEELLPGVDVLLEVFPTCSVEQAQWVLAKARGDLEEAVQMLVEGKEEGPAAWEGPNQDLPRRLRGPQKDELKSFILQKYMMVDSAEDQKIHRPMAPKEAPKKLIRYIDNQVVSTKGERFKDVRNPEAEEMKATYINLKPARKYRFH
With B1 as the molecule, how does the binding [4] read?
The binding was “binds”.

What about the binding [5] of the same molecule?
Its binding is “binds”.

And the binding [6]?
The binding was “binds”.

B2: Flag-CUEDC2 (in HEK293T cells) (protein, UniProt Q9H467 1-287)
chain: MELERIVSAALLAFVQTHLPEADLSGLDEVIFSYVLGVLEDLGPSGPSEENFDMEAFTEMMEAYVPGFAHIPRGTIGDMMQKLSGQLSDARNKENLQPQSSGVQGQVPISPEPLQRPEMLKEETRSSAAAAADTQDEATGAEEELLPGVDVLLEVFPTCSVEQAQWVLAKARGDLEEAVQMLVEGKEEGPAAWEGPNQDLPRRLRGPQKDELKSFILQKYMMVDSAEDQKIHRPMAPKEAPKKLIRYIDNQVVSTKGERFKDVRNPEAEEMKATYINLKPARKYRFH
Which binding [7] does the source give for B2 here?
The binding was “no binding”.
